Data from the supplement of paper PMC4604168 (melanoma cell lines).
The other results are listed elsewhere or left out. Single values are uncertain, as repeats are few or missing.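 Cells were imaged in 1,536-well plates, and nuclei stained with an antibody against cleaved PARP were counted against all DNA-stained nuclei to give the apoptosis fraction. Screening doses were chosen to leave most cells alive, and resting and induced cleaved-PARP levels differ strongly between cell lines.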

Key:
Test in all cases: cleaved PARP positive nuclei fraction relative to DMSO control; melanoma cells; higher = more apoptosis
Conditions in all cases: library dose: low library concentration; 72 h
[1] = test system: CBRC034 (line from a melanoma biopsy)
[2] = test system: COLO792
[3] = test system: COLO800
[4] = test system: COLO829
[5] = test system: G361
[6] = test system: IPC-298
[7] = test system: IST-MEL1
[8] = test system: LB2518-MEL
[9] = test system: LOXIMVI
[10] = test system: MEL-HO

SMILES | cleaved PARP positive nuclei fraction [1] [%] | cleaved PARP positive nuclei fraction [2] [%] | cleaved PARP positive nuclei fraction [3] [%] | cleaved PARP positive nuclei fraction [4] [%] | cleaved PARP positive nuclei fraction [5] [%] | cleaved PARP positive nuclei fraction [6] [%] | cleaved PARP positive nuclei fraction [7] [%] | cleaved PARP positive nuclei fraction [8] [%] | cleaved PARP positive nuclei fraction [9] [%] | cleaved PARP positive nuclei fraction [10] [%]
C[C@@H](N)c1ccc(C(=O)Nc2ccnc3[nH]ccc23)cc1 + C[As](C)SC[C@H](NC(=O)CC[C@H](N)C(=O)O)C(=O)NCC(=O)O [Darinaparsin] (first compound 0.4 µM, partner dose 0.4 µM) | 175 | 161 | 179 | 99.8 | 223 | 209 | 171 | 33.9 | 481 | 141
C[C@]12O[C@H](C[C@]1(O)CO)n1c3ccccc3c3c4c(c5c6ccccc6n2c5c31)CNC4=O [Lestaurtinib] + O=C(O)[C@@H]1[O][Sb](=[O])([O][Sb]2(=[O])[O][C@H]([C@H](O)CO)[C@H](O)[C@H](C(=O)O)[O]2)[O][C@H]([C@H](O)CO)[C@@H]1O [stibogluconate] (first compound 0.004 µM, partner dose 2 µM) | 30 | 60.7 | 134 | 100 | 69.1 | 44.4 | 51.9 | 104 | 168 | 121
C[C@]12O[C@H](C[C@]1(O)CO)n1c3ccccc3c3c4c(c5c6ccccc6n2c5c31)CNC4=O [Lestaurtinib] + CO[C@H]1C[C@@H]2CC[C@@H](C)[C@@](O)(O2)C(=O)C(=O)N2CCCC[C@H]2C(=O)O[C@H]([C@H](C)C[C@@H]2CC[C@@H](OCCO)[C@H](OC)C2)CC(=O)[C@H](C)/C=C(\C)[C@@H](O)[C@@H](OC)C(=O)[C@H](C)C[C@H](C)/C=C/C=C/C=C/1C [everolimus] (first compound 0.004 µM, partner dose 0.02 µM) | 283 | 294 | 78 | 124 | 185 | 229 | 333 | 284 | 352 | 128
CO[C@H]1C[C@@H]2CC[C@@H](C)[C@@](O)(O2)C(=O)C(=O)N2CCCC[C@H]2C(=O)O[C@H]([C@H](C)C[C@@H]2CC[C@@H](OCCO)[C@H](OC)C2)CC(=O)[C@H](C)/C=C(\C)[C@@H](O)[C@@H](OC)C(=O)[C@H](C)C[C@H](C)/C=C/C=C/C=C/1C [everolimus] + C[As](C)SC[C@H](NC(=O)CC[C@H](N)C(=O)O)C(=O)NCC(=O)O [Darinaparsin] (first compound 0.02 µM, partner dose 0.4 µM) | 79.1 | 123 | 93.9 | 105 | 158 | 39.9 | 61.2 | 141 | 97.4 | 61.7
Cn1cc(C2=C(c3cn(C4CCN(Cc5ccccn5)CC4)c4ccccc34)C(=O)NC2=O)c2ccccc21 [Enzastaurin] + CO[C@H]1C[C@@H]2CC[C@@H](C)[C@@](O)(O2)C(=O)C(=O)N2CCCC[C@H]2C(=O)O[C@H]([C@H](C)C[C@@H]2CC[C@@H](OCCO)[C@H](OC)C2)CC(=O)[C@H](C)/C=C(\C)[C@@H](O)[C@@H](OC)C(=O)[C@H](C)C[C@H](C)/C=C/C=C/C=C/1C [everolimus] (first compound 0.8 µM, partner dose 0.02 µM) | 60 | 190 | 72.8 | 191 | 73.5 | 183 | 147 | 57.1 | 125 | 57.3
CC(C)C[C@H](NC(=O)[C@H](Cc1ccccc1)NC(=O)c1cnccn1)B(O)O [Bortezomib] + N.N.[Cl][Pt][Cl] [cisplatin] (first compound 0.001 µM, partner dose 1.6 µM) | 175 | 91.5 | 78.1 | 132 | 1280 | 134 | 324 | 345 | 91.1 | 56.1
C[C@]12O[C@H](C[C@]1(O)CO)n1c3ccccc3c3c4c(c5c6ccccc6n2c5c31)CNC4=O [Lestaurtinib] + Clc1ccc(Nc2nnc(Cc3ccncc3)c3ccccc23)cc1 [vatalanib] (first compound 0.004 µM, partner dose 2 µM) | 73.3 | 128 | 411 | 72.7 | 47.8 | 272 | 64.8 | 47.1 | 244 | 96.9
CCCS(=O)(=O)Nc1ccc(F)c(C(=O)c2c[nH]c3ncc(Cl)cc23)c1F + C[As](C)SC[C@H](NC(=O)CC[C@H](N)C(=O)O)C(=O)NCC(=O)O [Darinaparsin] (first compound 0.08 µM, partner dose 0.4 µM) | 65.4 | 83.1 | 101 | 115 | 106 | 173 | 95.6 | 78.6 | 86.5 | 225
C[C@]12O[C@H](C[C@]1(O)CO)n1c3ccccc3c3c4c(c5c6ccccc6n2c5c31)CNC4=O [Lestaurtinib] + COc1ccc(Cl)c(Nc2nc3ccccc3nc2NS(=O)(=O)c2cccc(NC(=O)C(C)(C)N)c2)c1 [XL147] (first compound 0.004 µM, partner dose 0.8 µM) | 141 | 79.9 | 246 | 87.8 | 139 | 45.8 | 94.9 | 66.7 | 149 | 181
C[C@]12O[C@H](C[C@]1(O)CO)n1c3ccccc3c3c4c(c5c6ccccc6n2c5c31)CNC4=O [Lestaurtinib] + Nc1ncn([C@H]2C[C@H](O)[C@@H](CO)O2)c(=O)n1 [decitabine] (first compound 0.004 µM, partner dose 0.1 µM) | 148 | 72.6 | 154 | 40.2 | 202 | 41.5 | 150 | 391 | 131 | 102
C[C@]12O[C@H](C[C@]1(O)CO)n1c3ccccc3c3c4c(c5c6ccccc6n2c5c31)CNC4=O [Lestaurtinib] + CC(C)C[C@H](NC(=O)[C@H](Cc1ccccc1)NC(=O)c1cnccn1)B(O)O [Bortezomib] (first compound 0.004 µM, partner dose 0.001 µM) | 138 | 119 | 44.7 | 152 | 1150 | 408 | 135 | 108 | 58.3 | 77.9
N.N.[Cl][Pt][Cl] [cisplatin] + OCc1c[nH]c2ccccc12 [Indole-3-carbinol] (first compound 1.6 µM, partner dose 0.8 µM) | 46.5 | 197 | 81 | 98.6 | 184 | 83.5 | 67.4 | 110 | 67.6 | 46.1
C[C@@H]1CCN(C(=O)CC#N)C[C@@H]1N(C)c1ncnc2[nH]ccc12 + O=C(Oc1ccc([N+](=O)[O-])cc1)N1CCC(C(O)(c2ccc3c(c2)OCO3)c2ccc3c(c2)OCO3)CC1 [JZL184] (first compound 1 µM, partner dose 1 µM) | 85.6 | 42.7 | 73.7 | 63.9 | 226 | 78.8 | 243 |  | 69.4 | 
Cn1cc(C2=C(c3cn(C4CCN(Cc5ccccn5)CC4)c4ccccc34)C(=O)NC2=O)c2ccccc21 [Enzastaurin] + CC(=O)O[C@@]12CO[C@@H]1C[C@H](O)[C@@]1(C)C(=O)[C@H](O)C3=C(C)[C@@H](OC(=O)[C@H](O)[C@@H](NC(=O)OC(C)(C)C)c4ccccc4)C[C@@](O)([C@@H](OC(=O)c4ccccc4)[C@H]21)C3(C)C [Docetaxel] (first compound 0.8 µM, partner dose 0.0001 µM) | 176 | 274 | 359 | 373 | 194 | 767 | 45.1 |  | 176 | 172
C[As](C)SC[C@H](NC(=O)CC[C@H](N)C(=O)O)C(=O)NCC(=O)O [Darinaparsin] + C/C(O)=C(\C#N)C(=O)Nc1cc(Br)ccc1Br [LFM-A13] (first compound 0.4 µM, partner dose 2 µM) | 191 | 169 | 179 | 90.9 | 111 | 103 | 195 |  | 143 | 

Rewritten as comma-separated lines: entries from further up
SMILES,cleaved PARP positive nuclei fraction [1] [%],cleaved PARP positive nuclei fraction [2] [%],cleaved PARP positive nuclei fraction [3] [%],cleaved PARP positive nuclei fraction [4] [%],cleaved PARP positive nuclei fraction [5] [%],cleaved PARP positive nuclei fraction [6] [%],cleaved PARP positive nuclei fraction [7] [%],cleaved PARP positive nuclei fraction [8] [%],cleaved PARP positive nuclei fraction [9] [%],cleaved PARP positive nuclei fraction [10] [%]
"C[C@]12O[C@H](C[C@]1(O)CO)n1c3ccccc3c3c4c(c5c6ccccc6n2c5c31)CNC4=O [Lestaurtinib] + O=C(O)[C@@H]1[O][Sb](=[O])([O][Sb]2(=[O])[O][C@H]([C@H](O)CO)[C@H](O)[C@H](C(=O)O)[O]2)[O][C@H]([C@H](O)CO)[C@@H]1O [stibogluconate] (first compound 0.004 µM, partner dose 2 µM)",30,60.7,134,100,69.1,44.4,51.9,104,168,121
"C[C@]12O[C@H](C[C@]1(O)CO)n1c3ccccc3c3c4c(c5c6ccccc6n2c5c31)CNC4=O [Lestaurtinib] + CO[C@H]1C[C@@H]2CC[C@@H](C)[C@@](O)(O2)C(=O)C(=O)N2CCCC[C@H]2C(=O)O[C@H]([C@H](C)C[C@@H]2CC[C@@H](OCCO)[C@H](OC)C2)CC(=O)[C@H](C)/C=C(\C)[C@@H](O)[C@@H](OC)C(=O)[C@H](C)C[C@H](C)/C=C/C=C/C=C/1C [everolimus] (first compound 0.004 µM, partner dose 0.02 µM)",283,294,78,124,185,229,333,284,352,128
"CO[C@H]1C[C@@H]2CC[C@@H](C)[C@@](O)(O2)C(=O)C(=O)N2CCCC[C@H]2C(=O)O[C@H]([C@H](C)C[C@@H]2CC[C@@H](OCCO)[C@H](OC)C2)CC(=O)[C@H](C)/C=C(\C)[C@@H](O)[C@@H](OC)C(=O)[C@H](C)C[C@H](C)/C=C/C=C/C=C/1C [everolimus] + C[As](C)SC[C@H](NC(=O)CC[C@H](N)C(=O)O)C(=O)NCC(=O)O [Darinaparsin] (first compound 0.02 µM, partner dose 0.4 µM)",79.1,123,93.9,105,158,39.9,61.2,141,97.4,61.7
